The values below come from PMC11077047, “Activation of zinc uptake regulator by zinc binding to three regulatory sites”.

This data set concerns the target T1, Zur H36A (Streptomyces coelicolor) (UniProt Q9L2H5).
T1 sequence (looked up, limits assumed): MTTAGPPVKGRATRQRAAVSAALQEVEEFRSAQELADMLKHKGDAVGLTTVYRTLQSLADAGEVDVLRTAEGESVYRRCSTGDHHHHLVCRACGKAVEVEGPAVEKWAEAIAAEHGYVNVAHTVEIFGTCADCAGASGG
The experiment in a line: EMSA. Particulars: 400 nM Zur, 0-5 uM ZnSO4, faint smeared bands, EMSA: 20 mM Tris-HCl pH 7.8, 150 mM NaCl, 5 mM DTT, 0.1 mg/ml BSA, 5% glycerol, 0.1 ug poly(dI-dC) per 20 ul, 65 nM DNA, recombinant protein, label: 6-FAM in EMSA. (In general: In EMSA bound probe runs differently from free probe, usually more slowly.)

For at least one entry, the source does not settle the construct or the ends of the probe. Weaker means in comparison with the reference protein, sequence or condition of that experiment. Where a protein sequence is shown, tags need not be part of it.

As to “CAAGGCACATGACAACGGTGTTCAGTGCCGCGT (double strand) [zitB 33 bp]”, the binding result (hexamer needs higher Zn) was “binds more weakly”.
For “TCCGCTTGTTGACAACGGTTTCCATATTTGTTG (double strand) [znuA 33 bp (zurbox site 1)]”, the binding result is listed as “binds more weakly”.
